The target of test [1] is AnxA2 Δ14 (AnxA2 lacking the N-terminal 14 amino acids) (human) (UniProt P07355). Kind of test: SDS-PAGE under non-reducing conditions; purified AnxA2 derivatives kept under oxidizing (non-reducing) conditions (WT: oxidation state after 1 and 5 weeks); disulfide-linked dimer against monomer; both purified.
Test [2] deals with AnxA2 Δ32 (AnxA2 lacking the N-terminal 32 amino acids; core domain only) (human) (UniProt P07355). Described as above.

Amino acid sequences for entries named in this document (tags omitted). A change or cut given only in a name is not applied to a line headed by its entry. Chains listed by the source or under a name are the forms on record and can include a tag or linker.
AnxA2 Δ14 (AnxA2 lacking the N-terminal 14 amino acids) (P07355, form named): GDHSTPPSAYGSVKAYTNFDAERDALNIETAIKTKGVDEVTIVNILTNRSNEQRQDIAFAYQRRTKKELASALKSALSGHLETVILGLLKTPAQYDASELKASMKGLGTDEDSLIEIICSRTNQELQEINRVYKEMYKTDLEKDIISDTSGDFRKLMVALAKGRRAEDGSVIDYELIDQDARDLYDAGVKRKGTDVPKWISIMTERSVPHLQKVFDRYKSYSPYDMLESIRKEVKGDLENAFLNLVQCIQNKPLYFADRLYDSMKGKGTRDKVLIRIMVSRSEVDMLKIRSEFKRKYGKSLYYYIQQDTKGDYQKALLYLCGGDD
AnxA2 Δ32 (AnxA2 lacking the N-terminal 32 amino acids; core domain only) (P07355, form named): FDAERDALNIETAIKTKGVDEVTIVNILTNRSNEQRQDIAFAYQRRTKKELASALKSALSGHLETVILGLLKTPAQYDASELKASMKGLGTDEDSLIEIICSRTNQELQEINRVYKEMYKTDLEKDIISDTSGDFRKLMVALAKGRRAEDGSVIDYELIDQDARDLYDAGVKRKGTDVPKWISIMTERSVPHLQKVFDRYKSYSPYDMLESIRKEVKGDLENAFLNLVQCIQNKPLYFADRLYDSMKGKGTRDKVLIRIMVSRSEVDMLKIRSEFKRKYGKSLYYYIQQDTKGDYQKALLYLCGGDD

No constants are given. Whether binding was seen depends on the method and setting.

As to “AnxA2 Δ14 (AnxA2 lacking the N-terminal 14 amino acids) (from UniProt P07355 15-339) (domain or fragment)”, the binding result in test [1] is “no binding”.

Regarding “AnxA2 Δ32 (AnxA2 lacking the N-terminal 32 amino acids; core domain only) (from UniProt P07355 33-339) (domain or fragment)”, in test [2], the binding result is on record as “no binding”.

(Values after article PMC6168566.)
